Measured values from patent US20160046716A1 (Dana-Farber, published 2016).
Results are given in words; binding and its absence hold for the method and conditions named. Some binding calls cover weakened binding; strength is not graded here. For part of these data: Where a sequence is shown, tags or fusion partners need not be part of it.

Key:
[1] = target: T1, MICA antigen (UniGene Hs.130838) with a C-terminal BirA tag (human) (UniProt Q29983); assay: bead assays: MICA-coated Luminex beads and MICA-coated streptavidin beads by flow cytometry
T1 sequence: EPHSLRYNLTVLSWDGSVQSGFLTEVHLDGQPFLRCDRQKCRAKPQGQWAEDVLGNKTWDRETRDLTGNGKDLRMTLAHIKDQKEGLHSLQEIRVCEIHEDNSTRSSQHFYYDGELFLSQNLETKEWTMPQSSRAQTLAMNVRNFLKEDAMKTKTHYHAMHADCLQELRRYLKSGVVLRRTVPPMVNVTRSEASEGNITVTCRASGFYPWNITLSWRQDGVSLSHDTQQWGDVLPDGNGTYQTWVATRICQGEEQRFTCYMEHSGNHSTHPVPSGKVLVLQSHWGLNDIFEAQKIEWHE

[2] = target: T2, recombinant MICA*001 conjugated to Luminex beads (commercial kit) (human) (UniProt Q29983); assay: Luminex bead assay (One Lambda kit), PE anti-human IgG secondary; bars assigned by their order in the legend box
T2 sequence (looked up): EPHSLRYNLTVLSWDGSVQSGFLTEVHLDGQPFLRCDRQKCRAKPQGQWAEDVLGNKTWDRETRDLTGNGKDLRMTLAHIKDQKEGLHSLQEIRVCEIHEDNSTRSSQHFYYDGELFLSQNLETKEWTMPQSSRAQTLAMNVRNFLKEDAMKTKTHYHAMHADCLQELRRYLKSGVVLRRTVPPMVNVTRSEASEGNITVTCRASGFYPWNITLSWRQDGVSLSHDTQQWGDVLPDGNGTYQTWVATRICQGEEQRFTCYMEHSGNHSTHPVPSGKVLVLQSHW

[3] = target: T3, MICA on autologous tumor cells (CD33+CD34+ bone marrow cells of patient CM24002) (human) (UniProt Q29983); assay: flow cytometry on CD33+CD34+ tumor cells from bone marrow, antibody at 10 µg/ml
T3 sequence (looked up): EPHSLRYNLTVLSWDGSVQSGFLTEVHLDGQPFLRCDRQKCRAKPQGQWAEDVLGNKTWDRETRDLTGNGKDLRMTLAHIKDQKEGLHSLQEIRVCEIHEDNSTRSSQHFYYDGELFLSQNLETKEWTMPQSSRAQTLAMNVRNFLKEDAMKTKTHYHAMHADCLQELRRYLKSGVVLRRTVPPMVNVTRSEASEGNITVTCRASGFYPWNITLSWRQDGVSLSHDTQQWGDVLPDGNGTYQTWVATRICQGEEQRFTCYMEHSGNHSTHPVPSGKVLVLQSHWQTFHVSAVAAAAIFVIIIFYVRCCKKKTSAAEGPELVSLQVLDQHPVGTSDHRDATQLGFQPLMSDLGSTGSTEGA

[4] = target: T4, MICA on human tumor cell lines (RPMI 8226, Xg-1, OVCAR3, U937, K028, 1792, 827, MCF7) (human) (UniProt Q29983); assay: flow cytometry on tumor cell lines, directly conjugated antibody at 10 µg/ml
T4 sequence (looked up): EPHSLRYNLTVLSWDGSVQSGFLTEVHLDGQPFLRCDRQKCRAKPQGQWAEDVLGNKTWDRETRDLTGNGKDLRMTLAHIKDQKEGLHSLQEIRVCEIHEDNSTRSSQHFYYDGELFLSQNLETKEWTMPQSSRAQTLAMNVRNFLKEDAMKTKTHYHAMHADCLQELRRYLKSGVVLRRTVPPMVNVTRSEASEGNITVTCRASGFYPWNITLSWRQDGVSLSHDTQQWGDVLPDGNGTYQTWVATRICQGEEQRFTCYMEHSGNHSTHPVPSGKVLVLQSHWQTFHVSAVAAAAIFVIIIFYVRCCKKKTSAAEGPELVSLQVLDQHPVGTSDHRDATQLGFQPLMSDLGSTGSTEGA

[5] = target: T5, Human MICB (Western blot, native or denatured) (human) (UniProt Q29980); assay: Western blot after denaturing or non-denaturing PAGE
T5 sequence (looked up): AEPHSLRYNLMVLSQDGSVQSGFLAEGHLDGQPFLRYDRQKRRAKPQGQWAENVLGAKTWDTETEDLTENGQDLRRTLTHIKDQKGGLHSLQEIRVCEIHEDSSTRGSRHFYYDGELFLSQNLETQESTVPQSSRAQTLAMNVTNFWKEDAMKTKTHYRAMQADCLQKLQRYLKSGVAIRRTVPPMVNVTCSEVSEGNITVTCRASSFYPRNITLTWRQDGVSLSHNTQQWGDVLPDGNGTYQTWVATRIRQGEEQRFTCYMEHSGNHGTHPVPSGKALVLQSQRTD

[6] = target: T6, Human MICA (Western blot, native or denatured) (human) (UniProt Q29983); assay: as above
T6 sequence (looked up): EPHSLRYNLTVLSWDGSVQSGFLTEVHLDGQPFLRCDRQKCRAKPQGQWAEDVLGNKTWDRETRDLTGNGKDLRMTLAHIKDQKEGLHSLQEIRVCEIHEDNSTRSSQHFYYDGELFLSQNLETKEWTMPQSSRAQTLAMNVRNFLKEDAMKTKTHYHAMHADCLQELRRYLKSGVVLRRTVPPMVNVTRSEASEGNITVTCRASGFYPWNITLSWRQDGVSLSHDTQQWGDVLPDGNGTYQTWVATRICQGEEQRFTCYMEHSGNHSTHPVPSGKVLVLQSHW

[7] = target: T3, MICA on autologous tumor cells (CD33+CD34+ bone marrow cells of patient CM24002) (human); assay: flow cytometry (figure legend)
[8] = target: T4, MICA on human tumor cell lines (RPMI 8226, Xg-1, OVCAR3, U937, K028, 1792, 827, MCF7) (human); assay: flow cytometry (figure legend)
[9] = target: T7, human MICA on transduced B16 melanoma cells (human) (UniProt Q29983); assay: flow cytometry, antibody at 10 ug/ml (figure legend)
T7 sequence (looked up): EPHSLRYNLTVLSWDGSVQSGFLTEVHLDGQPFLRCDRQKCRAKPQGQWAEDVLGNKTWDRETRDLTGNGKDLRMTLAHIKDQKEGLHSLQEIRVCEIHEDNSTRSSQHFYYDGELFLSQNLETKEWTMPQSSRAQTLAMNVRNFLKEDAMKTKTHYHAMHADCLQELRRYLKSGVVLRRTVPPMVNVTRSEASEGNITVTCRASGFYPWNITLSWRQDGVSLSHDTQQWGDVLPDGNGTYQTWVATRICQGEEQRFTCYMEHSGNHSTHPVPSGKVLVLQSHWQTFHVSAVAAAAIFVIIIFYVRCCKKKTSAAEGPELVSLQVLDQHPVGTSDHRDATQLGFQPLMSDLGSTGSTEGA

[10] = target: T8, MICA*009 reference sequence (overlapping peptide array spanning the extracellular domains) (human) (UniProt Q29983); assay: overlapping peptide array, Cy5 anti-human IgG
T8 sequence: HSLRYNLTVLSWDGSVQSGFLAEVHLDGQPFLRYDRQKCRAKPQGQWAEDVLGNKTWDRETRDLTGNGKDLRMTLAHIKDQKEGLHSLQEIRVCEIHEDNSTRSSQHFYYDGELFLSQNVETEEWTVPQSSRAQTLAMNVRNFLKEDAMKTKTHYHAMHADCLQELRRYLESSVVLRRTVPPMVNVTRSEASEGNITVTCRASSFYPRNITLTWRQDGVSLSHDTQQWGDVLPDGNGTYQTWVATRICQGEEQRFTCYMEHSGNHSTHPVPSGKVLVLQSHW

Measured: binding

B1: MICA-Ab20 (antibody, V domains shown)
VH: QVQLQQWGAGLLKPSETLALTCAVSGGSFTDHYWSWIRQAPGKGLEWIGEINHSGVTNYNPSLKSRLTISVDTSKSQFSLRLTSVTAADTALYYCAKTGLYYDDVWGTFRPRGGFDSWGQGTLVTVSS
VL: DIVMTQSPDSLAVSLGERATINCKSSQSILYSSDNKNYLAWYQHKPGQPPKLLFYWASIRESGVPDRFSGGGSGTDFTLTISSLQAEDVAVYYCQQYYSPPCSFGQGTKLEIQ
notes: also called anti-MICA antibody ID-1; antibody ID 1
binds: [1] | [2]

B2: CM24002 Ab2 (antibody, V domains shown)
VH: QVQLQESGPGLVEPSGTLSLTCTVSGGSISRSNWWSWVRQPPGEGLEWIGEIHHIGRSSYNPSLKSRVTMSVDKSQNQFSLRLTSVTAADTAVYYCAKNGYYAMDVWGQGTTVTVSS
VL: EIVLTQSPGTLSLSPGERATLSCRASQSVSSDFLAWYQQKPGQAPRLLIYATSFRATGISDRFSGSGSGTDFSLTINRLEPEDFAVYYCQHYRSSPPWYTFAQGTKLDMRRTVAAPSV
notes: also called anti-MICA antibody ID-6; antibody ID 6
binds: [3] | [4] | [5] | [6] | [7] | [8]

B3: CM33322 Ab29 (antibody, V domains shown)
VH: EVQLLESGGGLVQPGGSLRLSCAASGFTFSSYGLTWIRQAPGKGLEWVSSISGSGNNTYYADSVKGRFTISRDKVKKTLYLQMDSLTVGDTAVYYCLGVGQGHGIPVIVSS
VL: DVVMTQSPLSLPVTLGQPASISCRSSQSLVHSDGNTYLNWFHQRPGQSPRRLIYKVSKRDSGVPDRFSGSGSGSDFTLKISRVEAEDVGIYYCMQGTHWPTFGQGTKVEIKRTVAA
binds: [4] | [9] | [8]

B4: CM33322 Ab11 (antibody, V domains shown)
VH: QVQLQESGPGLVKPSENLSLTCTVSDASMSDYHWSWIRQAAGKGLEWIGRMYSTGSPYYKPSLKGRVTMSIDTSKNQFSLKLASVTAADTAIYYCASGQHIGGWVPPDFWGQGTLVTVSS
VL: DIVMTQTPLSSPVTLGQPASISCRSSEGLVYSDGDTYLSWFHQRPGQPPRLLIYKISNRFSGVPDRFSGSGAGTDFTLKISRVEAEDVGVYYCMQATHFPWTFGQGTKVEVKR
notes: also called CM33322 mAb11; CM33322 11
binds: [10]
